The nature of the assay: qHTS Assay for Lipid Storage Modulators in Drosophila S3 Cells.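 On cell number change: cells counted by Cell Tracker Red CMTPX staining in the red channel.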 The settings on record: BODIPY lipid droplet fluorescence, 18-24 h; for cell number change: measured here: cell count max response, cells fed with added oleic acid. In outline: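 Drosophila S3 cells loaded with oleic acid (400 uM, as added) and compounds at several concentrations; lipid droplets imaged by 488-nm laser-scanning cytometry, 500–530 nm intensity and object ratio to cell channel. Percent activity normalized to 20 uM Triacsin C.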
A general note: In qHTS, concentration-response curves come from the screen itself.

[1] abbreviates: measured here: cell number channel AC50, cells fed with added oleic acid.
[2] abbreviates: measured here: lipid fluorescence (Fed channel) AC50, cells fed with added oleic acid.

The list shows a part of the results. Further columns of the screen follow, without active or inactive calls. Most of these compounds were active or inconclusive in the main read-out, so they are no random draw. Potencies come from curve fits of mixed quality, noted in brackets.

Take `O=C1c2ccccc2N2C(=O)c3ccccc3[C@H]2N1c1ccccc1`: the cell number change is -2.35%.

The term AC50 denotes the midpoint of the concentration-response curve, whichever way the signal moves. Lower therefore signals greater potency. With `CC1(C)CC(=O)C(C(C2=C(O)CC(C)(C)CC2=O)c2ccc(Br)s2)C(=O)C1` (stereo not given), the cell number change is -37.5%. Under setting [1], the AC50 was 32.6 µM [falling, single point].

As to `Cc1cc2ccccc2c(=O)n1CC(=O)NCC(=O)N1CCN(c2ccccc2F)CC1`, the cell number change is -25%. Moreover, under setting [1], the AC50 was 0.0058 µM [falling, full curve, poor fit].

With `COc1ccc(C(=O)n2c(N)nc3ccccc32)cc1OC`, the cell number change is -9.85%.

As to `Cc1onc(C(=O)N2CCN(Cc3ccccc3)CC2)c1[N+](=O)[O-]`, the cell number change stood at 40.2%. Further, the AC50 under setting [1] is 29.1 µM [rising, single point]. For the same molecule, the AC50 under setting [2] was 0.651 µM [falling, full curve].

In the case of `C/C(CC(=O)NCCCN1CCOCC1)=N\NC(=O)COc1cccc2ccccc12`, the AC50 under setting [2] was 25.9 µM [rising, single point].

Consider `O=C(CC1(C(=O)O)CCCC1)N1CCOCC1`, for which the half-maximal activity concentration (AC50) was 6.51 µM [falling, single point] under setting [1] and 6.51 µM [falling, single point] under setting [2].

`CCCCC(=O)Nc1ccc2c(c1)nc(CCN1CCN(c3ccccn3)CC1)n2C`: the cell number change was 7.8%.

As for `COc1ccc(NC(=O)c2cc(-c3ccc(C)o3)nc3ccccc23)cc1OC`, the cell number change is -50%. Moreover, under setting [1], the concentration at half-maximal activity (AC50) was 2.91 µM [rising, partial curve]. For the same molecule, under setting [2], the half-maximal activity concentration (AC50) was 2.31 µM [rising, partial curve].

In the case of `COC(=O)c1cc(CNC(=O)c2ccccc2OCc2c(C)noc2C)ccc1OC`, the cell number change was -1.39%.

For the molecule `CCCCCN(C(=O)CCC(=O)OCC(=O)N(CC#N)c1ccccc1)c1c(N)n(CCCC)c(=O)[nH]c1=O`, the cell number change was 59.6%. In addition, under setting [1], the AC50 is 9.2 µM [rising, partial curve]. Also, the concentration at half-maximal activity (AC50) under setting [2] was 29.1 µM [rising, single point].

For the molecule `Cc1ccc(-n2c(SCC(=O)Nc3ccc4c(c3)OCO4)nnc2-c2ccccn2)cc1`, the cell number change was -15.8%. For the same molecule, the AC50 under setting [1] was 0.164 µM [rising, full curve, poor fit]. Under setting [2], the AC50 was 0.184 µM [rising, full curve, poor fit].

`Cc1ccc(C)n1-c1cc(S(=O)(=O)N2CCOCC2)ccc1N1CCCC1`: the cell number change is 11.1%. The AC50 under setting [2] is 20.6 µM [rising, partial curve].

Turning to `O=C(NCc1cccs1)c1cc(-c2ccccc2)nc2ccccc12`, the cell number change came to 2.76%. The AC50 under setting [2] is 9.2 µM [rising, partial curve].

With `O=c1c2cc3c(=O)n(CC4CCCO4)c(=O)c3cc2c(=O)n1CC1CCCO1` (stereo not given), the cell number change is -7.55%. For the same molecule, under setting [2], the AC50 is 16.4 µM [falling, partial curve, poor fit].

`O=C(NCCO)c1ccc2nc(Cc3cccc(Cl)c3)oc2c1`: the cell number change is -3.72%.

For the origin of these results see PubChem BioAssay AID2685 (National Center for Advancing Translational Sciences (NCATS), 2010).
